Reference: article PMC6158172, “A bidentate Polycomb Repressive-Deubiquitinase complex is required for efficient activity on nucleosomes” (Nature Communications, 2018)
Results are given in words; binding and its absence hold for the method and conditions named. Some results given as binding are weak or reduced against the parent protein; the word gives no strength. Values belong to the molecule of their own block, whether it stands above or below them.

Amino acid sequences for entries named in this document (tags omitted). A change or cut given only in a name is not applied to a line headed by its entry. Residues count along the entry.
UniProt Q92560: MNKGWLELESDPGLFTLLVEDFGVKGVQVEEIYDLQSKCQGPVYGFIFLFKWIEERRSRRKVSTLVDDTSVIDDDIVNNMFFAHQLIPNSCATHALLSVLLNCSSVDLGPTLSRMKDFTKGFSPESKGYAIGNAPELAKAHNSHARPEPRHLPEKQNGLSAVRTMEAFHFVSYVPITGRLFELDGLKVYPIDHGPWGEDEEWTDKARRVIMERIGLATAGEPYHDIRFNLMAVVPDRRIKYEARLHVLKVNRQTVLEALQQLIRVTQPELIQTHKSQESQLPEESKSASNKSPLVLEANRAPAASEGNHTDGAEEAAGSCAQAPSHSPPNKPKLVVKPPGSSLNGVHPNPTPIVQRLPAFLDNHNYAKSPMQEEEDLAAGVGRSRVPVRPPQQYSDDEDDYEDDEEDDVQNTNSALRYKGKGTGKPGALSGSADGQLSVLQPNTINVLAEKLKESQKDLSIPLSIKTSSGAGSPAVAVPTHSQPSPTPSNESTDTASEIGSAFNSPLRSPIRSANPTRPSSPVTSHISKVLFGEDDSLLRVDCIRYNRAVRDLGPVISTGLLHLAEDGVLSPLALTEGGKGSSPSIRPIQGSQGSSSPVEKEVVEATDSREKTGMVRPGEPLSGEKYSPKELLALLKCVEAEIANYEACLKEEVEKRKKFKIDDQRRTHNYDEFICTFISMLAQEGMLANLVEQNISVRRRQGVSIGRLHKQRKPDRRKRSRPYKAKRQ
BAP1^1–712 (wild type), as in the BAP1^1–712–ASXL1^247–366 complex: residues 1-712 of Q92560
UniProt Q8IXJ9, residues 247-366: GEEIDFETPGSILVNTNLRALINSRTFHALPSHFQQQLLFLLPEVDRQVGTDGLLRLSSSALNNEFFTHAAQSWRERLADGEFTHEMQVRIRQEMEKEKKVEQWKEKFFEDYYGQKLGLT

Columns and labels:
[1] = biological target: BAP1(N251R)^1–729, as in the BAP1(N251R)–ASXL1 complex (human) (UniProt Q92560); experiment: co-purification; co-expressed in insect cells (Tni or Sf9) from baculovirus; Ni-NTA by the His6 tag on Calypso or BAP1, elution with 500 mM imidazole, dialysis
[2] = biological target: BAP1(L635A)^1–729, as in the BAP1(L635A)–ASXL1 complex (human) (UniProt Q92560); experiment: as above
[3] = biological target: BAP1^1–712 (wild type), as in the BAP1^1–712–ASXL1^247–366 complex (human) (UniProt Q92560); experiment: as above
[4] = biological target: BAP1^1–729 (wild type), as in the BAP1^1–729–ASXL1^247–366 complex (human) (UniProt Q92560); experiment: as above
[5] = biological target: Calypso^43–404 (wild type), as in the Calypso^43–404–ASX^207–340 complex (Drosophila melanogaster) (UniProt Q7K5N4); experiment: AUC; sedimentation velocity, c(s) analysis at 1, 4 and 18 µM complex, 20 °C, 20 mM HEPES pH 7.8, 100 mM NaCl, 0.8 mM TCEP; 2:2 complex to 1:1 units; both purified

binding [1]: binds
binding [2]: binds
binding [3]: binds
binding [4]: binds
Molecule: StrepII-ASXL1^247–366 (Deubad domain) (from UniProt Q8IXJ9 247-366) (domain or fragment)

binding [5]: binds weakly
B1: Calypso^43–404 (wild type), as in the Calypso^43–404–ASX^207–340 complex (enzyme, Drosophila melanogaster, UniProt Q7K5N4 43-404, looked up)
chain: ADGWLELESDPGLFTLLLKDFGCHDVQVEEVYDLQKPIESPYGFIFLFRWIEERRARRKIVETTAEIFVKDEEAISSIFFAQQVVPNSCATHALLSVLLNCNENNLQLGDTLSRLKTHTKGMSPENKGLAIGNTPELACAHNSHAMPQARRRLERTGAGVSSCRFTGEAFHFVSFVPINGQLFELDGLKPYPMNHGGWEDSEDWTDKFRRVMAERLGIATGEQDIRFNLMAVVPDRRIAITHKLKMLRTNQAIVSGTLQKLLKADEQGESGNGDSQRPDTPTTLLEPSAFTARDLQSLLKNLDTEIAINEQHLADENDRRHMFKVDASRRTHNYDKFICTFLSMLAHQGVLGELVSQHLLPS
notes: Calypso, deubiquitinase of the Drosophila PR-DUB, residues 43-404 (UCH domain, coiled-coil hairpin, ULD; lacks the C-terminal positively charged tail 405-471); Always handled together with ASX 207-340, with which it was co-expressed; two copies per 2:2 complex at high concentration; also called WT^(no tail); Calypso^(no tail); source: E. coli BL21 (DE3), co-expressed with ASX, purified …
